These are yes or no findings as the source states them, for the method shown. In cells and extracts the contact can be indirect. Some entries that bind do so weakly or less than the wild type.
How the values were obtained:
Assay in all cases: split reporter
CYP1A1 (human) = biological target: T1, CYP1A1 (human) (UniProt P04798)
T1 sequence: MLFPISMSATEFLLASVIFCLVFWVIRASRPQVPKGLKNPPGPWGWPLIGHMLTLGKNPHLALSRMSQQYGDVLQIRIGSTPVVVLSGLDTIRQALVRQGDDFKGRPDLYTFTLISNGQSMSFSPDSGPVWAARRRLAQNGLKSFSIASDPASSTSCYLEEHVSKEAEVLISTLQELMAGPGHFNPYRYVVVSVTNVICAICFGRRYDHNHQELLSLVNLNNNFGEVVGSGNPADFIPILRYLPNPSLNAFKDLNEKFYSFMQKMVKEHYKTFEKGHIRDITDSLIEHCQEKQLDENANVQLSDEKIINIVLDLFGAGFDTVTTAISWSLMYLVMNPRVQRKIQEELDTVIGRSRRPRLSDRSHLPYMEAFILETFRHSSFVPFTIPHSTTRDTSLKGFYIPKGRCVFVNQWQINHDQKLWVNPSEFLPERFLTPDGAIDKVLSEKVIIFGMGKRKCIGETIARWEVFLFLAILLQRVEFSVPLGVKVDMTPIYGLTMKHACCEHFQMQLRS

By UniProt entry, the sequences of proteins in these tests, tags left out.
UniProt P11802: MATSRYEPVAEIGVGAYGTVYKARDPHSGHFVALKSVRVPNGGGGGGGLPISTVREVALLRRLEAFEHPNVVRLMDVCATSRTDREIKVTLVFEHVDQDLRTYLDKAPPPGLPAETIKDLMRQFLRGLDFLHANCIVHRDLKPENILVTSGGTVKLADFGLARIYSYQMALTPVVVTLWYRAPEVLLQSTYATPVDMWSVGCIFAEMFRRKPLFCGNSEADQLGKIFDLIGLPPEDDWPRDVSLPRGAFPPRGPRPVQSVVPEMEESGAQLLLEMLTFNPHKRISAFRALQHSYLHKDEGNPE
UniProt Q9BVL2: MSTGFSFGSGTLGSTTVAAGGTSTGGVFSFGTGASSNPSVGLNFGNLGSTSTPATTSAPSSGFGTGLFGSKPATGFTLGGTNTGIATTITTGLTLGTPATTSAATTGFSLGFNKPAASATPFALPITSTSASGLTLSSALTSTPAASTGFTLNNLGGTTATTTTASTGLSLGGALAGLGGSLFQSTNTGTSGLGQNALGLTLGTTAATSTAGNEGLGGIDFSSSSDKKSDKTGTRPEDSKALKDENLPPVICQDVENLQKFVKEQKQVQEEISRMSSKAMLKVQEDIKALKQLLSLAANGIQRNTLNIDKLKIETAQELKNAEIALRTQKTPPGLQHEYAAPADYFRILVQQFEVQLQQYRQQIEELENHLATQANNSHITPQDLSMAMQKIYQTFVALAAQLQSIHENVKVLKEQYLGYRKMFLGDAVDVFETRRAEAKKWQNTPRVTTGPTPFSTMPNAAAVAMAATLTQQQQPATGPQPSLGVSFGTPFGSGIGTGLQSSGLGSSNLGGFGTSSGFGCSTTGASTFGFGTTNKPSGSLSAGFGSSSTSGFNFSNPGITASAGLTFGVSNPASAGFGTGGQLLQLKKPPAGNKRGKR
UniProt P00167: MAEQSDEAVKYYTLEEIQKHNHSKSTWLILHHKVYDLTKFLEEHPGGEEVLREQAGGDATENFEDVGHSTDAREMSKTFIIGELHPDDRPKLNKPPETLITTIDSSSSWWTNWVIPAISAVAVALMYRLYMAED
UniProt P30281: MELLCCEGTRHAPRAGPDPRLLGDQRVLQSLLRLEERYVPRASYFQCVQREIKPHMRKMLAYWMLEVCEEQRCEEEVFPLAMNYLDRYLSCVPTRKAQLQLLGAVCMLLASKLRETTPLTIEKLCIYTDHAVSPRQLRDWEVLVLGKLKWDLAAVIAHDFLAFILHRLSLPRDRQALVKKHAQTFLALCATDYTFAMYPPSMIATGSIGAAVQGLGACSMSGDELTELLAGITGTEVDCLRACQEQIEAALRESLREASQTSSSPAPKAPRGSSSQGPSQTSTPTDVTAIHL
UniProt P37198: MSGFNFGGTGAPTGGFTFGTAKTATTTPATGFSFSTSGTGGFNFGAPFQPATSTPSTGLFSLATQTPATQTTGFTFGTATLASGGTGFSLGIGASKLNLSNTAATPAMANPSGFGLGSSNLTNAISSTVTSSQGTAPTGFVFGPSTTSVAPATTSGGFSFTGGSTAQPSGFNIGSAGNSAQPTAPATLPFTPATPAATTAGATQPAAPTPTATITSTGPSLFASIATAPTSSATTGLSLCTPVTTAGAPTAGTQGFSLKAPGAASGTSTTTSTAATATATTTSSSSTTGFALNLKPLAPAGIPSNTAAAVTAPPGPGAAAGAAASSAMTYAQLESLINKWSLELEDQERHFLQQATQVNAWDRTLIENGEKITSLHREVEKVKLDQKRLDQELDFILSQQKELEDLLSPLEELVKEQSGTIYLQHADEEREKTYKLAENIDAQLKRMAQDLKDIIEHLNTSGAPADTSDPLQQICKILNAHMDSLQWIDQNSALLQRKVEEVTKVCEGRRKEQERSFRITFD

[1] = biological target: cyclin-dependent kinase 4 (CDK4) (human) (UniProt P11802)
[2] = biological target: nucleoporin like 1 (NUPL1) (human) (UniProt Q9BVL2)

CYB5A (from UniProt P00167 1-134)
binding (CYP1A1 (human)): binds

cyclin D3 (CCND3) (from UniProt P30281 1-292)
binding [1]: binds

nucleoporin 62kDa (NUP62) (from UniProt P37198 1-522)
binding [2]: binds

From publication doi:10.1101/770669
